# Assay results as given in doi:10.1101/2022.09.15.508192.
# Protein sequences, listed by entry. Tags and fused reporters are not part of them. Lines headed by an entry give the natural chain unless they say otherwise; changes in a name come on top.
# UniProt P0A6F5: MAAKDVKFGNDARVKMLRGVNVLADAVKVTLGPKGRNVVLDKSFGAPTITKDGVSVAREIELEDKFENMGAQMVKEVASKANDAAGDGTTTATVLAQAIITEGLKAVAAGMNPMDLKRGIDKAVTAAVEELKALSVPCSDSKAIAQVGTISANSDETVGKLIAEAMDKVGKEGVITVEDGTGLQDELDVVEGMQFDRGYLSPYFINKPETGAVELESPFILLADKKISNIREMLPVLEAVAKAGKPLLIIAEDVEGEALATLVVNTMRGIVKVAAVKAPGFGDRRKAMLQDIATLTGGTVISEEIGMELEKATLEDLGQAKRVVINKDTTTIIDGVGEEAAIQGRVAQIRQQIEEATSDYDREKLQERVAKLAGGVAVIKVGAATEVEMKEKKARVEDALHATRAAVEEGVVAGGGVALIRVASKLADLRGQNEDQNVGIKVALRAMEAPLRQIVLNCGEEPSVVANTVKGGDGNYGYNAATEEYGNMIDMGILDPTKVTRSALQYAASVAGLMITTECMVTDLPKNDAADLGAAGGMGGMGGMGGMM
# UniProt P19224: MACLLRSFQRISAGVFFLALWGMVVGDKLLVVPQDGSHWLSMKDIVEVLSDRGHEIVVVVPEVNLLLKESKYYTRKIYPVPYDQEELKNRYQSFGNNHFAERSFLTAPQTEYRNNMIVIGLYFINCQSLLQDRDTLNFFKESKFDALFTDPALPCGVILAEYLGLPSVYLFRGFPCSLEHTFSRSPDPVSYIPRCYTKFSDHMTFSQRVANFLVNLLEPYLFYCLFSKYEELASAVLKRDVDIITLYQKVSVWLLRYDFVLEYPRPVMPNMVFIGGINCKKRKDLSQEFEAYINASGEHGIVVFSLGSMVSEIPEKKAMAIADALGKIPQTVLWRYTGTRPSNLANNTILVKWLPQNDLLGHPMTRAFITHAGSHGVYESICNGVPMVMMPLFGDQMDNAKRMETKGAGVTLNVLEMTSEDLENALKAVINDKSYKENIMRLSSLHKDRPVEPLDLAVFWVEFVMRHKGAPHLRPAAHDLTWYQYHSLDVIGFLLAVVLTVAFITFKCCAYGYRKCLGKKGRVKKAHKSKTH
# Results are given in words; binding and its absence hold for the method and conditions named. In cells and extracts the contact can be indirect. Binding calls can cover weak binding; strength is not graded here.
# Target: Escherichia coli chaperonin GroEL (Escherichia coli) (UniProt P0A6F5)
# Assay: cryo-EM structure
substance,measurement,value
His6-TrxA-tagged water-soluble domain of human UDP glucuronosyltransferase 1A (UGT1A) (from UniProt P19224) (domain or fragment),binding,binds
